The numbers were not newly measured in patent US20160095850A1, “METHODS AND COMPOSITIONS FOR TREATMENT OF HIV INFECTION” (COOPER HUMAN SYSTEMS LLC, priority 2013, published 2016), which cites them from elsewhere.

The test system of the data set is latent HIV. As to conditions: in vitro T-cell model of HIV latency; read-out: EC50 of HIV induction.

Usually EC50 stands for the concentration that produces a half-maximal response. Turning to `O=C(CCCCCCC(=O)Nc1ccccc1)NO` [Vorinostat, suberoylanilide hydroxamic acid], the EC50 was 3.95 µM.
